Assay results reported in patent US20020037902A1 (priority 2000, published 2002).
Where two headings read alike, the source gives them in different places.

Test system: oligodendrocytes
Details: 48 hours

Nc1nc2ccc(OC(F)(F)F)cc2s1 [Riluzole, 2-amino-6-trifluoromethoxy-benzothiazole]
Toxic effect on the survival of the oligodendrocytes (riluzole alone at the dose of about 10 mM): slightly toxic effect
Toxic effect on the survival of the oligodendrocytes (riluzole alone at the doses of 0.01 mM to 10 mM): no toxic effect
